These are yes or no findings as the source states them, for the method shown. Binding seen in cells or lysates may run through a third protein. These calls come from enrichment with a bait or labelling near it, and not all partners need be listed. For some of these results: No binding means not detected with the bait. Sequences can lack the tags named with a protein.
T1: YdiP with a chromosomal C-terminal FLAG3 tag (E. coli) (UniProt P77402)
T1 sequence: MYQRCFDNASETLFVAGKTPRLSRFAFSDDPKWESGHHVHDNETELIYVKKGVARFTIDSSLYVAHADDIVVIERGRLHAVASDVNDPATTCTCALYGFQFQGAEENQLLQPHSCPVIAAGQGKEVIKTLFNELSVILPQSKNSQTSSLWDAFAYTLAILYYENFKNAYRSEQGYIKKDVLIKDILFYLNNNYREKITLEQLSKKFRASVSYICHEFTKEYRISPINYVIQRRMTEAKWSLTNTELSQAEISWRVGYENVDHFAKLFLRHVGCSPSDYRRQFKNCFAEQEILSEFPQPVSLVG

Protein sequences, listed by entry. Tags and fused reporters are not part of them.
UniProt P0A978: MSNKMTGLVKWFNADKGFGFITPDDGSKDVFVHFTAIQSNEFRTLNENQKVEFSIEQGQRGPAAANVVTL
UniProt P0A9X9: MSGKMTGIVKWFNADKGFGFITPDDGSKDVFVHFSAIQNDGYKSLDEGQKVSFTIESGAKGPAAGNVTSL

T2: YneJ with a chromosomal C-terminal FLAG3 tag (E. coli) (UniProt P77309)
T2 sequence: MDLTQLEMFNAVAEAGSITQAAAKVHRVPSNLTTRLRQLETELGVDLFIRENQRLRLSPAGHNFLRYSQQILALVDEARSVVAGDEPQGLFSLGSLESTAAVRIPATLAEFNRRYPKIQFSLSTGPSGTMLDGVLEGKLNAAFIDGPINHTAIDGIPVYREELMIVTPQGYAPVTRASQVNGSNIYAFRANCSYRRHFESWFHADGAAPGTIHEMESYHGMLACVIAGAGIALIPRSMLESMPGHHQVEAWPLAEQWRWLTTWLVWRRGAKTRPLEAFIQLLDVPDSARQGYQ


Key:
[1] = target: T1, YdiP with a chromosomal C-terminal FLAG3 tag (E. coli); experiment: affinity purification with mass spectrometry; endogenously C-terminally FLAG3-tagged YdiP as bait; cells grown in RM at 15 °C; RIPA buffer, MACS microbead purification; n = 3
[2] = target: T1, YdiP with a chromosomal C-terminal FLAG3 tag (E. coli); experiment: affinity purification with mass spectrometry; endogenously C-terminally FLAG3-tagged YdiP as bait; cells grown in RM or MM at 37 °C; RIPA buffer, MACS microbead purification; n = 3
[3] = target: T2, YneJ with a chromosomal C-terminal FLAG3 tag (E. coli); experiment: affinity purification with mass spectrometry; endogenously FLAG3-tagged YneJ as bait; cells grown in LB and M9-putrescine/tryptone medium; lysis in RIPA buffer, MACS microbead purification, Orbitrap Elite
[4] = target: T1, YdiP with a chromosomal C-terminal FLAG3 tag (E. coli); experiment: affinity purification with mass spectrometry; endogenously C-terminally FLAG3-tagged YdiP as bait; cells grown in MM at 15 °C; RIPA buffer, MACS microbead purification; n = 3

Row | binding [1] | binding [3] | binding [4] | Molecule | binding [2]
1 | binds |  |  | CspG (from UniProt P0A978 1-70) | no binding (only cells grown at 37 °C (RM and MM))
2 | binds |  |  | CspA (from UniProt P0A9X9 1-70) | no binding (only cells grown at 37 °C (RM and MM))
3 |  | binds |  | GabT (protein, UniProt P22256 1-426) MNSNKELMQRRSQAIPRGVGQIHPIFADRAENCRVWDVEGREYLDFAGGIAVLNTGHLHPKVVAAVEAQLKKLSHTCFQVLAYEPYLELCEIMNQKVPGDFAKKTLLVTTGSEAVENAVKIARAATKRSGTIAFSGAYHGRTHYTLALTGKVNPYSAGMGLMPGHVYRALYPCPLHGISEDDAIASIHRIFKNDAAPEDIAAIVIEPVQGEGGFYASSPAFMQRLRALCDEHGIMLIADEVQSGAGRTGTLFAMEQMGVAPDLTTFAKSIAGGFPLAGVTGRAEVMDAVAPGGLGGTYAGNPIACVAALEVLKVFEQENLLQKANDLGQKLKDGLLAIAEKHPEIGDVRGLGAMIAIELFEDGDHNKPDAKLTAEIVARARDKGLILLSCGPYYNVLRILVPLTIEDAQIRQGLEIISQCFDEAKQ | 
4 |  | binds |  | GlsB (protein, UniProt P0A6W0 1-308) MAVAMDNAILENILRQVRPLIGQGKVADYIPALATVDGSRLGIAICTVDGQLFQAGDAQERFSIQSISKVLSLVVAMRHYSEEEIWQRVGKDPSGSPFNSLVQLEMEQGIPRNPFINAGALVVCDMLQGRLSAPRQRMLEVVRGLSGVSDISYDTVVARSEFEHSARNAAIAWLMKSFGNFHHDVTTVLQNYFHYCALKMSCVELARTFVFLANQGKAIHIDEPVVTPMQARQINALMATSGMYQNAGEFAWRVGLPAKSGVGGGIVAIVPHEMAIAVWSPELDDAGNSLAGIAVLEQLTKQLGRSVY | 
5 |  | binds |  | Sad (protein, UniProt P76149 1-462) MTITPATHAISINPATGEQLSVLPWAGADDIENALQLAAAGFRDWRETNIDYRAEKLRDIGKALRARSEEMAQMITREMGKPINQARAEVAKSANLCDWYAEHGPAMLKAEPTLVENQQAVIEYRPLGTILAIMPWNFPLWQVMRGAVPIILAGNGYLLKHAPNVMGCAQLIAQVFKDAGIPQGVYGWLNADNDGVSQMIKDSRIAAVTVTGSVRAGAAIGAQAGAALKKCVLELGGSDPFIVLNDADLELAVKAAVAGRYQNTGQVCAAAKRFIIEEGIASAFTERFVAAAAALKMGDPRDEENALGPMARFDLRDELHHQVEKTLAQGARLLLGGEKMAGAGNYYPPTVLANVTPEMTAFREEMFGPVAAITIAKDAEHALELANDSEFGLSATIFTTDETQARQMAARLECGGVFINGYCASDARVAFGGVKKSGFGRELSHFGLHEFCNIQTVWKDRI | 
6 |  | binds |  | PuuA (protein, UniProt P78061 1-472) METNIVEVENFVQQSEERRGSAFTQEVKRYLERYPNTQYVDVLLTDLNGCFRGKRIPVSSLKKLEKGCYFPASVFAMDILGNVVEEAGLGQEMGEPDRTCVPVLGSLTPSAADPEFIGQMLLTMVDEDGAPFDVEPRNVLNRLWQQLRQRGLFPVVAVELEFYLLDRQRDAEGYLQPPCAPGTDDRNTQSQVYSVDNLNHFADVLNDIDELAQLQLIPADGAVAEASPGQFEINLYHTDNVLEACDDALALKRLVRLMAEKHKMHATFMAKPYEEHAGSGMHIHISMQNNRGENVLSDAEGEDSPLLKKMLAGMIDLMPSSMALLAPNVNSYRRFQPGMYVPTQASWGHNNRTVALRIPCGDRHNHRVEYRVAGADANPYLVMAAIFAGILHGLDNELPLQEEVEGNGLEQEGLPFPIRQSDALGEFIENDHLRRYLGERFCHVYHACKNDELLQFERLITETEIEWMLKNA | 
7 |  | binds |  | PuuE (protein, UniProt P50457 1-421) MSNNEFHQRRLSATPRGVGVMCNFFAQSAENATLKDVEGNEYIDFAAGIAVLNTGHRHPDLVAAVEQQLQQFTHTAYQIVPYESYVTLAEKINALAPVSGQAKTAFFTTGAEAVENAVKIARAHTGRPGVIAFSGGFHGRTYMTMALTGKVAPYKIGFGPFPGSVYHVPYPSDLHGISTQDSLDAIERLFKSDIEAKQVAAIIFEPVQGEGGFNVAPKELVAAIRRLCDEHGIVMIADEVQSGFARTGKLFAMDHYADKPDLMTMAKSLAGGMPLSGVVGNANIMDAPAPGGLGGTYAGNPLAVAAAHAVLNIIDKESLCERANQLGQRLKNTLIDAKESVPAIAAVRGLGSMIAVEFNDPQTGEPSAAIAQKIQQRALAQGLLLLTCGAYGNVIRFLYPLTIPDAQFDAAMKILQDALSD | 
8 | binds |  | binds | CspE (protein, UniProt P0A972 1-69) MSKIKGNVKWFNESKGFGFITPEDGSKDVFVHFSAIQTNGFKTLAEGQRVEFEITNGAKGPSAANVIAL | no binding (only cells grown at 37 °C (RM and MM))
9 | binds |  |  | CspI (protein, UniProt P0A986 1-70) MSNKMTGLVKWFNPEKGFGFITPKDGSKDVFVHFSAIQSNDFKTLTENQEVEFGIENGPKGPAAVHVVAL | no binding (only cells grown at 37 °C (RM and MM))
10 |  | binds |  | GabD (protein, UniProt P25526 1-482) MKLNDSNLFRQQALINGEWLDANNGEAIDVTNPANGDKLGSVPKMGADETRAAIDAANRALPAWRALTAKERATILRNWFNLMMEHQDDLARLMTLEQGKPLAEAKGEISYAASFIEWFAEEGKRIYGDTIPGHQADKRLIVIKQPIGVTAAITPWNFPAAMITRKAGPALAAGCTMVLKPASQTPFSALALAELAIRAGVPAGVFNVVTGSAGAVGNELTSNPLVRKLSFTGSTEIGRQLMEQCAKDIKKVSLELGGNAPFIVFDDADLDKAVEGALASKFRNAGQTCVCANRLYVQDGVYDRFAEKLQQAVSKLHIGDGLDNGVTIGPLIDEKAVAKVEEHIADALEKGARVVCGGKAHERGGNFFQPTILVDVPANAKVSKEETFGPLAPLFRFKDEADVIAQANDTEFGLAAYFYARDLSRVFRVGEALEYGIVGINTGIISNEVAPFGGIKASGLGREGSKYGIEDYLEIKYMCIGL | 
11 |  | binds |  | GadB (protein, UniProt P69910 1-466) MDKKQVTDLRSELLDSRFGAKSISTIAESKRFPLHEMRDDVAFQIINDELYLDGNARQNLATFCQTWDDENVHKLMDLSINKNWIDKEEYPQSAAIDLRCVNMVADLWHAPAPKNGQAVGTNTIGSSEACMLGGMAMKWRWRKRMEAAGKPTDKPNLVCGPVQICWHKFARYWDVELREIPMRPGQLFMDPKRMIEACDENTIGVVPTFGVTYTGNYEFPQPLHDALDKFQADTGIDIDMHIDAASGGFLAPFVAPDIVWDFRLPRVKSISASGHKFGLAPLGCGWVIWRDEEALPQELVFNVDYLGGQIGTFAINFSRPAGQVIAQYYEFLRLGREGYTKVQNASYQVAAYLADEIAKLGPYEFICTGRPDEGIPAVCFKLKDGEDPGYTLYDLSERLRLRGWQVPAFTLGGEATDIVVMRIMCRRGFEMDFAELLLEDYKASLKYLSDHPKLQGIAQQNSFKHT | 
12 |  | binds |  | PuuC (protein, UniProt P23883 1-495) MNFHHLAYWQDKALSLAIENRLFINGEYTAAAENETFETVDPVTQAPLAKIARGKSVDIDRAMSAARGVFERGDWSLSSPAKRKAVLNKLADLMEAHAEELALLETLDTGKPIRHSLRDDIPGAARAIRWYAEAIDKVYGEVATTSSHELAMIVREPVGVIAAIVPWNFPLLLTCWKLGPALAAGNSVILKPSEKSPLSAIRLAGLAKEAGLPDGVLNVVTGFGHEAGQALSRHNDIDAIAFTGSTRTGKQLLKDAGDSNMKRVWLEAGGKSANIVFADCPDLQQAASATAAGIFYNQGQVCIAGTRLLLEESIADEFLALLKQQAQNWQPGHPLDPATTMGTLIDCAHADSVHSFIREGESKGQLLLDGRNAGLAAAIGPTIFVDVDPNASLSREEIFGPVLVVTRFTSEEQALQLANDSQYGLGAAVWTRDLSRAHRMSRRLKAGSVFVNNYNDGDMTVPFGGYKQSGNGRDKSLHALEKFTELKTIWISLEA | 
13 | binds |  |  | CspB (protein, UniProt P36995 1-71) MSNKMTGLVKWFNADKGFGFISPVDGSKDVFVHFSAIQNDNYRTLFEGQKVTFSIESGAKGPAAANVIITD | no binding (only cells grown at 37 °C (RM and MM))
